For series [1], the target named is T1, RuvB (Bacillus subtilis) (UniProt O32055).
T1 sequence (looked up, limits assumed): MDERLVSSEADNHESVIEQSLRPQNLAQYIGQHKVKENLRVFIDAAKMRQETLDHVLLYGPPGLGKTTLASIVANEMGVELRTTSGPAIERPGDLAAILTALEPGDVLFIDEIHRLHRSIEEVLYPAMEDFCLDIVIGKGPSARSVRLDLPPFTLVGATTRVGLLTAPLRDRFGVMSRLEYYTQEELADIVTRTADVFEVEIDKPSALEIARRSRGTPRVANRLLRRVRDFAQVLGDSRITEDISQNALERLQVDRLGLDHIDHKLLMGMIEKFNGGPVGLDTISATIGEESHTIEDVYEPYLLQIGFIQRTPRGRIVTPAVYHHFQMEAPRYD
Nature of the series: EMSA. As to conditions: ATPgS, 0.2% glutaraldehyde, no stable complex; 50 mM Tris-HCl pH 7.5, 50 mM NaCl, 1 mM DTT, 0.05 mg/mL BSA, 5% glycerol, 1 or 10 mM MgCl2 or 5 mM EDTA, 15 min 37 C, 0.2 nM DNA; native protein; label: 32P (5' by gamma-32P); folded or branched DNA.

Series [2] has as its target T2, DisA (Bacillus subtilis) (UniProt P37573).
T2 sequence (looked up, limits assumed): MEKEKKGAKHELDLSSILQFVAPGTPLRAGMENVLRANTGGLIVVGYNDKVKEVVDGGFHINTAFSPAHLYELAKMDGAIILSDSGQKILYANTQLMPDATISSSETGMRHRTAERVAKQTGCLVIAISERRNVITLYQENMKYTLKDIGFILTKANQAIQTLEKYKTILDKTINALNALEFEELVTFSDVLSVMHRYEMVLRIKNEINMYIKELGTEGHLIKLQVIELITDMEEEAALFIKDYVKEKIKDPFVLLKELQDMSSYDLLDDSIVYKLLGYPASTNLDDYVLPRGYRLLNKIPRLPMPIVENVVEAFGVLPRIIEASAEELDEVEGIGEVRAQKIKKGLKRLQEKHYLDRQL
The experiment in a line: EMSA. As to conditions: 50 mM Tris-HCl pH 7.5, 50 mM NaCl, 1 mM DTT, 0.05 mg/mL BSA, 5% glycerol, 1 or 10 mM MgCl2 or 5 mM EDTA, 15 min 37 C, 0.2 nM DNA, label: 32P (5' by gamma-32P), folded or branched DNA; for binding result: recombinant protein. (In general: Mobility shift assays separate free from complexed probe on a gel.)

For series [3], the target named is T1, RuvB (Bacillus subtilis). Nature of the series: DNase I footprinting. As to conditions: 80 nM RuvB, 5 mM ATPgS, 10 mM Mg2+; 50 mM Tris-HCl pH 7.5, 50 mM NaCl, 1 mM DTT, 0.05 mg/mL BSA, 5% glycerol, 1 or 10 mM MgCl2 or 5 mM EDTA, 15 min 37 C, 0.2 nM DNA; native protein; label: 32P (5' by gamma-32P); folded or branched DNA.
Series [4] concerns the target T2, DisA (Bacillus subtilis). The experiment in a line: DNase I footprinting. The settings on record: 10 mM Mg2+, 5 mM ATPgS, extended protection; 50 mM Tris-HCl pH 7.5, 50 mM NaCl, 1 mM DTT, 0.05 mg/mL BSA, 5% glycerol, 1 or 10 mM MgCl2 or 5 mM EDTA, 15 min 37 C, 0.2 nM DNA; recombinant protein; label: 32P (5' by gamma-32P); folded or branched DNA.

For one sequence, binding result and Kd results are on record in paper PMC8583203, “DisA Restrains the Processing and Cleavage of Reversed Replication Forks by the RuvAB-RecU Resolvasome”.

For at least one entry, the source does not settle the construct or the ends of the probe. For part of these data: A negative result means that nothing was seen under these conditions. Protein sequences can lack the tags named with them. For part of these data: The comparison behind a weaker result is the experiment's own reference, which may not be listed here. For part of these data: At least one verdict was read from the data and is not stated in words by the source.

For the sequence “CGCAAGCGACAGGAACCTCGAGAAGCTTCCGGTAGCAGCCTGAGCGGTGGTTGAATTCCTCGAGGTTCCTGTCGCTTGCG / CGCAGCGACAGGAACCTCGAGGAATTCAACCACCGCTCAACTCAACTGCAGTCTGACTCGAGGTTCCTGTCGCTTGCG / CGCAAGCGACAGGAACCTCGAGTCTAGACTGCAGTTGAGTCCTTGCTAGGACGGATCCCTCAGGTTCCTGTCGCTTGCG / CGCAAGCGACAGGAACCTCGAGGGATCCGTCCTAGCAAGGGGCTGCTACCGGAAGCTTCTCGAGGTTCCTGTCGCTTGCG [HJ-J3 DNA (fixed Holliday junction)]”, the binding result with RuvB (Bacillus subtilis) [1] is on record as “no binding”; with DisA (Bacillus subtilis) [2] (5 mM EDTA, no Mg2+), “binds more weakly”; with DisA (Bacillus subtilis) [2] (10 mM Mg2+, 500 uM c-di-AMP) it was “binds more weakly”; with RuvB (Bacillus subtilis) [3], “no binding”; in the series with DisA (Bacillus subtilis) [4], “binds”. Besides, in the series with DisA (Bacillus subtilis) [2] (1 mM Mg2+, recombinant …), the Kd was determined as 0.018 µM.

One may read the Kd as the concentration at which binding is half-saturated.
